PubChem BioAssay AID1259254 | NCATS – 2017
Purpose: 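Finding genes that stop cells copying their DNA twice in one cycle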 (primary screen). System: human HCT116 colorectal cancer cells. Reagents: single siRNA against human genes. Time to read-out: 3 days. Read-out: 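Nuclei stained with Hoechst and imaged; cell-cycle phase assigned by DNA content; G2 share scaled per plate, non-targeting siRNA 0%, GMNN siRNA 100%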. Reading the numbers: G2 robust z-score and G2 cells, % of GMNN control: higher = more G2 cells, more excess DNA replication. Rule for the call: 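An siRNA counts as active if its G2 robust z-score lies at least 5 MADs above the screen median; here such calls match roughly 38% of GMNN control or more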.
Here is a random part of about 59,000 deposited reagents. About 1,550 of them (2.6%) were called active. 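G2 share is only a proxy for re-replication; each gene was hit by three separate siRNAs, and active genes were retested.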 The numbers tell different reagents against one gene apart. Not all columns of the deposit are shown. Reagent sequences are not shown. Not given: the amount of reagent.

gene knocked down	siRNA no.	G2 robust z-score	G2 cells, % of GMNN control	Outcome
PDE11A (phosphodiesterase 11A)	1	-0.767	-2.43	inactive
PDE11A (phosphodiesterase 11A)	2	1.62	14.4	inactive
PDE11A (phosphodiesterase 11A)	3	-0.00657	2.92	inactive
HYDIN (HYDIN axonemal central pair apparatus protein)	1	0.55	6.84	inactive
HYDIN (HYDIN axonemal central pair apparatus protein)	2	1.98	16.9	inactive
HYDIN (HYDIN axonemal central pair apparatus protein)	3	0.294	5.04	inactive
MMP12 (matrix metallopeptidase 12)	1	2.38	19.7	inactive
MMP12 (matrix metallopeptidase 12)	2	0.66	7.61	inactive
MMP12 (matrix metallopeptidase 12)	3	-1.24	-5.79	inactive
TMEM214 (transmembrane protein 214)	1	0.0754	3.5	inactive
TMEM214 (transmembrane protein 214)	2	0.332	5.3	inactive
TMEM214 (transmembrane protein 214)	3	3.82	29.8	inactive
KBTBD6 (kelch repeat and BTB domain containing 6)	1	-0.581	-1.12	inactive
KBTBD6 (kelch repeat and BTB domain containing 6)	2	-0.929	-3.57	inactive
KBTBD6 (kelch repeat and BTB domain containing 6)	3	0.00129	2.98	inactive
POM121L9P (POM121 transmembrane nucleoporin like 9, pseudogene)	1	-0.83	-2.87	inactive
POM121L9P (POM121 transmembrane nucleoporin like 9, pseudogene)	2	-0.847	-2.99	inactive
POM121L9P (POM121 transmembrane nucleoporin like 9, pseudogene)	3	-0.95	-3.72	inactive
TNFAIP1 (TNF alpha induced protein 1)	1	-0.707	-2	inactive
TNFAIP1 (TNF alpha induced protein 1)	2	-0.274	1.04	inactive
TNFAIP1 (TNF alpha induced protein 1)	3	0.218	4.5	inactive
EHMT2 (euchromatic histone lysine methyltransferase 2)	1	0.175	4.2	inactive
EHMT2 (euchromatic histone lysine methyltransferase 2)	2	0.126	3.85	inactive
EHMT2 (euchromatic histone lysine methyltransferase 2)	3	-0.442	-0.145	inactive
OGA (O-GlcNAcase)	1	-1.3	-6.2	inactive
OGA (O-GlcNAcase)	2	0.0781	3.52	inactive
OGA (O-GlcNAcase)	3	1.1	10.7	inactive
DCBLD1 (discoidin, CUB and LCCL domain containing 1)	1	-0.167	1.79	inactive
DCBLD1 (discoidin, CUB and LCCL domain containing 1)	2	-0.483	-0.431	inactive
DCBLD1 (discoidin, CUB and LCCL domain containing 1)	3	-0.399	0.161	inactive
PRICKLE1 (prickle planar cell polarity protein 1)	1	-0.853	-3.04	inactive
PRICKLE1 (prickle planar cell polarity protein 1)	2	-1.28	-6.04	inactive
PRICKLE1 (prickle planar cell polarity protein 1)	3	-0.747	-2.29	inactive
FLT3LG (fms related receptor tyrosine kinase 3 ligand)	1	-0.00654	2.92	inactive
FLT3LG (fms related receptor tyrosine kinase 3 ligand)	2	0.986	9.9	inactive
FLT3LG (fms related receptor tyrosine kinase 3 ligand)	3	0.328	5.27	inactive
ELP1 (elongator acetyltransferase complex subunit 1)	1	-1.22	-5.61	inactive
ELP1 (elongator acetyltransferase complex subunit 1)	2	-0.728	-2.15	inactive
ELP1 (elongator acetyltransferase complex subunit 1)	3	-0.945	-3.68	inactive
LRP8 (LDL receptor related protein 8)	1	1.94	16.6	inactive
LRP8 (LDL receptor related protein 8)	2	0.0407	3.25	inactive
LRP8 (LDL receptor related protein 8)	3	0.622	7.34	inactive
CHTF18 (chromosome transmission fidelity factor 18)	1	-0.177	1.72	inactive
CHTF18 (chromosome transmission fidelity factor 18)	2	3.68	28.8	inactive
CHTF18 (chromosome transmission fidelity factor 18)	3	1.86	16.1	inactive
LINC01561 (long independently transcribed non-coding RNA 1561)	1	-0.527	-0.741	inactive
LINC01561 (long independently transcribed non-coding RNA 1561)	2	4.89	37.4	inactive
LINC01561 (long independently transcribed non-coding RNA 1561)	3	1.21	11.5	inactive
EEA1 (early endosome antigen 1)	1	-0.905	-3.4	inactive
EEA1 (early endosome antigen 1)	2	0.14	3.95	inactive
EEA1 (early endosome antigen 1)	3	-0.712	-2.04	inactive
LOC727799 (retired record)	1	0.108	3.73	inactive
LOC727799 (retired record)	2	-0.945	-3.68	inactive
LOC727799 (retired record)	3	0.323	5.24	inactive
ARHGAP15 (Rho GTPase activating protein 15)	1	-0.369	0.373	inactive
ARHGAP15 (Rho GTPase activating protein 15)	2	0.838	8.87	inactive
ARHGAP15 (Rho GTPase activating protein 15)	3	-0.849	-3.01	inactive
TRIM25 (tripartite motif containing 25)	1	0.0418	3.26	inactive
TRIM25 (tripartite motif containing 25)	2	1.39	12.8	inactive
TRIM25 (tripartite motif containing 25)	3	0.5	6.49	inactive
ZFAND1 (zinc finger AN1-type containing 1)	1	0.238	4.64	inactive
ZFAND1 (zinc finger AN1-type containing 1)	2	0.287	4.98	inactive
ZFAND1 (zinc finger AN1-type containing 1)	3	5.91	44.6	active
HPGD (15-hydroxyprostaglandin dehydrogenase)	1	1.55	13.9	inactive
HPGD (15-hydroxyprostaglandin dehydrogenase)	2	-0.759	-2.37	inactive
HPGD (15-hydroxyprostaglandin dehydrogenase)	3	-1.3	-6.21	inactive
PRPF3 (pre-mRNA processing factor 3)	1	-0.202	1.55	inactive
PRPF3 (pre-mRNA processing factor 3)	2	1.25	11.7	inactive
PRPF3 (pre-mRNA processing factor 3)	3	-0.342	0.562	inactive
